Values are the deposited “Percent Effect”, in %. How 0% and 100% were set is not recorded. Most values in the screen are low, and negative values occur. Compounds were drawn at random from those tested, without regard to their results. Two or more numbers in one place are separate tests of the same structure; such repeats can differ widely.

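Growth of Mycobacterium tuberculosis over 4 days (cholesterol / DPPC medium with tyloxapol); the read-out is not stated. Concentration: 50 µM. Direction is inferred from retests: higher values go with more growth inhibition. Of about 69,000 compounds tested this way, about 370 (0.54%) reached 50% or more in at least one test.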

| SMILES | effect |
|---|---|
| `O=C(O)C(F)(F)F.[H][C@@]12CCN(C3CCC3)[C@]1([H])CC[C@H](C(=O)NCc1ccco1)O2` | -0.6076 |
| `O=C1CC(c2ccc(C(=O)O)cc2)c2c(sc3c2CCCC3)N1` (stereo unspecified) | -1.18 |
| `O=S(=O)(c1cn[nH]c1)N1CCC(O)(CN2CCC(F)(F)CC2)C1` (stereo unspecified) | -22.51 and -10.96 |
| `COC(=O)[C@H](C)NC(=O)COc1nn(C)c2nc(C)cc(C)c12` | 9.657 |
| `Cc1cc(N(C)C)nc(C2(C)CCCN2C(=O)c2cnccn2)n1` (stereo unspecified) | 4.602 |
| `CSCC[C@H](N)C(=O)NCc1cc2n(n1)CCCN(C1CCCCC1)C2` | -8.832 |
| `COc1c(CNCCc2c[nH]c3ccccc23)c(C)nn1C` | -12.3 and -27.35 |
| `Cc1cccc(CNC(CN2CCN(C)CC2)c2ccccc2)c1` (stereo unspecified) | 20.87 |
| `O=C(NCc1ccc(F)cc1)NCC(O)(c1cccs1)C1CC1` (stereo unspecified) | -20.6 |
| `COc1ncc(-c2ccc(C(N)=O)cc2)c(OC)n1` | -3.7 |
| `CCCc1nc(C)c(C(=O)NCC2CCN(C3CC3)C2)s1` (stereo unspecified) | -13.85 |
| `CC(C)(C)c1cc(CN2CCOC(CCc3ccccc3)C2)n[nH]1` (stereo unspecified) | 41.86 |
| `CCc1nc(CN2CCCN(C(=O)c3ccco3)CC2)cs1` | -53.31 |
| `Cc1cc(NC(=O)CN2CCOC(CN(C)C)C2)n(C)n1` (stereo unspecified) | -9.573 |
| `CCNC(=O)N(C)C(c1ccccc1)c1ccccn1` (stereo unspecified) | 25.29 |
| `CS(=O)(=O)c1ccc(NCc2ccc(F)cc2)cn1` | 13.4 |
| `Cc1ccc(Cl)cc1NC(=O)Cn1cc(C(=O)O)ccc1=O` | -22.79 and -11.15 |
| `CCN(CC)C(=O)c1ccn(COc2c(Cl)cccc2Cl)n1` | 6.302 |
| `CCNC(=O)NCc1cccc(N2CC=CC2)c1` | -4.089 and 5.524 |
| `Cc1ccc(NC(=O)Cn2ncc(SCC(N)=O)c(Cl)c2=O)c(F)c1` | -7.77 |
| `O=C(O)C(F)(F)F.[H][C@@]12CCN(C3CCOCC3)C[C@]1(C(=O)N1CCOCC1)CCO2` | -10.91 |
| `CC(C)c1noc(CN(C)C(=O)c2ccccc2-c2nc[nH]n2)n1` | -20.31 |
| `COCCN1C[C@@H](C)[C@@]2(COCCN(C(=O)c3ccno3)C2)C1.O=C(O)C(F)(F)F` | -4.912 |
| `O=C(O)C(F)(F)F.[H][C@]12C[C@H](C(=O)NC)N(C)[C@@]1([H])CN(S(=O)(=O)c1ccc(OC)cc1)C2` | -17.2 |
| `CC(C)NC(=O)CN1CCSC2(CCCCC2)C1` | -49.24 |
| `Cc1ccc(-c2noc(Cn3nc(C(N)=O)ccc3=O)n2)cc1` | -16.32 |
| `Cn1ccnc1-c1nc2cc(S(=O)(=O)N3CCCC3)ccc2n1C` | -13.6 |
| `Cc1cc(C)n(CC2CN(Cc3cccc(C#N)c3)CCO2)n1` (stereo unspecified) | -22.9 |
| `Cc1[nH]nc(CCC(=O)NCC2CCN(C3CCCCC3)C2)c1C` (stereo unspecified) | -0.1823 |
| `CN(CC1CC1)C(=O)CN1CCCC1c1cnn(C)c1` (stereo unspecified) | 11.34 and 0.8863 |
| `CN(C)C(=O)Cc1ccccc1NCc1cc(C#N)ccc1F` | -2.698 |
| `Cc1nc(NC2CCCC2)cc(C2CCN2C(=O)c2ccccn2)n1` (stereo unspecified) | 14.07 |
| `Cc1cc(C)c(CNC(=O)N(C)Cc2sccc2C)c(=O)[nH]1` | -8.241 |
| `Cl.Cl.O=C(CN1CCN(CC(O)C2CC2)CC1)NCc1ccccc1` (stereo unspecified) | -14.37 |
| `O=C(O)C(F)(F)F.[H][C@@]12OCCN(C(=O)c3ccc(C)nc3)[C@@]1([H])CC[C@H]2OC` | -6.838 |
| `CCCc1nc2c(c(C)c(C)n2CCN(C)C)c(N)c1CC` | -0.9753 |
| `COc1cccc2c1ccn2CCNC(=O)CC(C)C` | -1.737 |
| `COCCCC1(C(=O)O)CCCN(C(=O)c2ccc(Cl)cc2F)C1` (stereo unspecified) | -2.779 |
| `COc1ccc(CNc2nc(N3CCOCC3)ns2)cc1` | 19.06 |
| `Cc1ccn(CCC(=O)N2CCOC(c3nc(-c4cccs4)no3)C2)n1` (stereo unspecified) | -19.41 |
| `CN(Cc1ccsc1)C(=O)c1cc(S(=O)(=O)N(C)C)ccc1Cl` | 6.564 |
| `Cc1cc(C)nc(NC2CCc3nc(C)nn3C2)n1` (stereo unspecified) | -20.11 |
| `CCn1c(CN2CCCC2)nnc1C1CCN(S(=O)(=O)CC)CC1` | -0.1245 |
| `O=C(Cc1c[nH]c2ccccc12)N1CCN(C(=O)c2ccoc2)CC1` | 1.02 |
| `Cc1ccc(C)c(CC(=O)Nc2cnccc2SCCCO)c1` | -19.44 |
| `Cc1csc(C(C#N)C(=O)NCc2ccccc2)n1` (stereo unspecified) | 12.97 |
| `O=C(CCc1ccsc1)NC1CCN(c2cccc(F)c2)CC1` | 5.148 |
| `COc1cc(C(=O)O)cc(I)c1OCC(=O)NCCc1ccccc1` | -4.345 |
| `CC(Nc1ccc(Oc2cccc(C#N)c2)cc1)C(=O)NC1CC1` (stereo unspecified) | 31.05 |
| `Cc1nc2ccnn2c(C)c1CCC(=O)N1CCC(C(N)=O)CC1` | -14.95 |

Repeated from the top, 5 entries:

SMILES,effect
O=C(O)C(F)(F)F.[H][C@@]12CCN(C3CCC3)[C@]1([H])CC[C@H](C(=O)NCc1ccco1)O2,-0.6076
O=C1CC(c2ccc(C(=O)O)cc2)c2c(sc3c2CCCC3)N1 (stereo unspecified),-1.18
O=S(=O)(c1cn[nH]c1)N1CCC(O)(CN2CCC(F)(F)CC2)C1 (stereo unspecified),-22.51 and -10.96
COC(=O)[C@H](C)NC(=O)COc1nn(C)c2nc(C)cc(C)c12,9.657
Cc1cc(N(C)C)nc(C2(C)CCCN2C(=O)c2cnccn2)n1 (stereo unspecified),4.602

Data taken from ChEMBL document CHEMBL3988442, “University of Dundee, Small-Polar-MMV Screening Library” (2021).